Experimental data taken from article PMC3066133.
These are yes or no findings as the source states them, for the method shown. In cells and extracts the contact can be indirect. Here binding means that the protein was enriched with, or labelled near, the bait; the list need not be complete.

Target: HA-RI332, C-terminally truncated form of ribophorin-I with an HA epitope
Assay: affinity purification with mass spectrometry

B1: OS9 (protein, UniProt Q13438 26-667)
chain: GGVGSLNLEELSEMRYGIEILPLPVMGGQSQSSDVVIVSSKYKQRYECRLPAGAIHFQREREEETPAYQGPGIPELLSPMRDAPCLLKTKDWWTYEFCYGRHIQQYHMEDSEIKGEVLYLGYYQSAFDWDDETAKASKQHRLKRYHSQTYGNGSKCDLNGRPREAEVRFLCDEGAGISGDYIDRVDEPLSCSYVLTIRTPRLCPHPLLRPPPSAAPQAILCHPSLQPEEYMAYVQRQADSKQYGDKIIEELQDLGPQVWSETKSGVAPQKMAGASPTKDDSKDSDFWKMLNEPEDQAPGGEEVPAEEQDPSPEAADSASGAPNDFQNNVQVKVIRSPADLIRFIEELKGGTKKGKPNIGQEQPVDDAAEVPQREPEKERGDPERQREMEEEEDEDEDEDEDEDERQLLGEFEKELEGILLPSDRDRLRSEVKAGMERELENIIQETEKELDPDGLKKESERDRAMLALTSTLNKLIKRLEEKQSPELVKKHKKKRVVPKKPPPSPQPTEEDPEHRVRVRVTKLRLGGPNQDLTVLEMKRENPQLKQIEGLVKELLEREGLTAAGKIEIKIVRPWAEGTEEGARWLTDEDTRNLKEIFFNILVPGAEEAQKERQRQKELESNYRRVWGSPGGEGTGDLDEFDF
Which binding does the source give for B1 here?
Its binding is “binds”.
